Results from PMC13230545.
No constants are given. Whether binding was seen depends on the method and setting. In cells and extracts the contact can be indirect. A yes stands for co-enrichment or nearness to the bait. Other partners may have been found. Sequences can lack the tags named with a protein.

Protein sequences, listed by entry. Tags and fused reporters are not part of them.
UniProt O31774: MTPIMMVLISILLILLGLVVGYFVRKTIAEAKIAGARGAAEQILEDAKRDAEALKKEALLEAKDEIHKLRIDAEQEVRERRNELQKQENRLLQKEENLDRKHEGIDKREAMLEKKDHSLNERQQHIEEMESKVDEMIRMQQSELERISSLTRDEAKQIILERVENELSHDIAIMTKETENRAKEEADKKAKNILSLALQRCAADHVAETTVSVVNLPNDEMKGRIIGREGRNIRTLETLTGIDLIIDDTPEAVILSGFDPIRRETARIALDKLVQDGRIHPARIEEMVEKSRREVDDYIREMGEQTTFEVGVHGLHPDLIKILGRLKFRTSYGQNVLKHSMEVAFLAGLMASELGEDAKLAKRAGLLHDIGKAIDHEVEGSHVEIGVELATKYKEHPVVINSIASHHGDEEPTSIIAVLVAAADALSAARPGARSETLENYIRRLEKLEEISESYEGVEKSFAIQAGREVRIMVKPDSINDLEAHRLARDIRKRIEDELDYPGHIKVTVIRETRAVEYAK
UniProt P37869: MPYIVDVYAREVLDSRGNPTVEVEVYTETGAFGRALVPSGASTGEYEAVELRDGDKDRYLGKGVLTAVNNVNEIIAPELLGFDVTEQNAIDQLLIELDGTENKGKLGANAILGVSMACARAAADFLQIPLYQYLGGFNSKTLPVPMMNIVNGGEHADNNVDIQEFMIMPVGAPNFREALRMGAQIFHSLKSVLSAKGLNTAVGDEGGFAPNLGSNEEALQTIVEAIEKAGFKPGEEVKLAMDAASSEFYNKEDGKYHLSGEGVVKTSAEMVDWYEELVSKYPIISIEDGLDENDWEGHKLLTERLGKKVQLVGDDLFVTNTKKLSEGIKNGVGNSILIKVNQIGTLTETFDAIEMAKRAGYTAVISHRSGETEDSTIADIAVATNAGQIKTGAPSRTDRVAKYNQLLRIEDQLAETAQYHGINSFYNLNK

T1: YaaT (RicT) with a C-terminal FLAG tag (B. subtilis) (UniProt P37541)
T1 sequence: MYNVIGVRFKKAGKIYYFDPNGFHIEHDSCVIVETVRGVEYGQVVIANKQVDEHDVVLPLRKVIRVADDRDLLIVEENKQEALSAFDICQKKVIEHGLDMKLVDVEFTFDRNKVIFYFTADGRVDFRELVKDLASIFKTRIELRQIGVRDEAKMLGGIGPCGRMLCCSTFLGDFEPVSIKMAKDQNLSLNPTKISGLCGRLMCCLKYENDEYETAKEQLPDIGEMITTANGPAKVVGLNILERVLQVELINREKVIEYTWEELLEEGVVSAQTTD


Biological target: T1, YaaT (RicT) with a C-terminal FLAG tag (B. subtilis)
Assay: affinity purification with mass spectrometry; lysate of the in-locus YaaT-FLAG strain (late exponential phase, OD600 ~1) on anti-FLAG M2 affinity gel, 2 h, 4 °C; 20 mM HEPES-KOH pH 7.5, 30 mM NH4Cl, 6 mM Mg-acetate, 0.5 mM TCEP, 200 µM DDM; eluted with 3x FLAG peptide; DIA-MS; three biological replicates

Molecule	binding
RNase J (B. subtilis (endogenous in B. subtilis)) (enzyme)	binds
YmcA (RicA) (protein, UniProt O31779 1-143) MTLYSKKDIVQQARNLAKMISETEEVDFFKRAEAQINENDKVSTIVNQIKALQKQAVNLKHYEKHEALKQVEAKIDALQEELEEIPVIQEFRDSQMEVNDLLQLVAHTISNQVTNEIITSTGGDLLKGETGSKVKHSNNSCSL	binds
PNPase (enzyme, UniProt P50849 1-705) MGQEKHVFTIDWAGRTLTVETGQLAKQANGAVMIRYGDTAVLSTATASKEPKPLDFFPLTVNYEERLYAVGKIPGGFIKREGRPSEKAVLASRLIDRPIRPLFADGFRNEVQVISIVMSVDQNCSSEMAAMFGSSLALSVSDIPFEGPIAGVTVGRIDDQFIINPTVDQLEKSDINLVVAGTKDAINMVEAGADEVPEEIMLEAIMFGHEEIKRLIAFQEEIVAAVGKEKSEIKLFEIDEELNEKVKALAEEDLLKAIQVHEKHAREDAINEVKNAVVAKFEDEEHDEDTIKQVKQILSKLVKNEVRRLITEEKVRPDGRGVDQIRPLSSEVGLLPRTHGSGLFTRGQTQALSVCTLGALGDVQILDGLGVEESKRFMHHYNFPQFSVGETGPMRGPGRREIGHGALGERALEPVIPSEKDFPYTVRLVSEVLESNGSTSQASICASTLAMMDAGVPIKAPVAGIAMGLVKSGEHYTVLTDIQGMEDALGDMDFKVAGTEKGVTALQMDIKIEGLSREILEEALQQAKKGRMEILNSMLATLSESRKELSRYAPKILTMTINPDKIRDVIGPSGKQINKIIEETGVKIDIEQDGTIFISSTDESGNQKAKKIIEDLVREVEVGQLYLGKVKRIEKFGAFVEIFSGKDGLVHISELALERVGKVEDVVKIGDEILVKVTEIDKQGRVNLSRKAVLREEKEKEEQQS	binds

The remaining lines, values ahead:

binding	Molecule
binds	endonuclease RNase Y (from UniProt O31774 1-520) (enzyme)
binds	enolase (from UniProt P37869 1-430) (enzyme)
binds	YlbF (RicF) (protein, UniProt O34412 1-149) MYATMESVRLQSEAQQLAEMILQSETAENYRNCYKRLQEDEEAGRIIRSFIKIKEQYEDVQRFGKYHPDYREISRKMREIKRELDLNDKVADFKRAENELQSILDEVSVEIGTAVSEHVKVPTGNPYFDGLSSCGGGCGSGGSCGCKVS
